Source: PubChem BioAssay AID686938 (Drosophila RNAi Screening Center, 2013)

- Assay: 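Looking for CRAC channel components and the factors controlling them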 (primary screen)
- Cells: Drosophila S2R+ cells
- Reagents: long dsRNA against Drosophila genes, about 0.25 µg dsRNA per well, roughly 10,000 cells
- Duration: 5 days of knock-down before the calcium assay
- Treatment: thapsigargin (SERCA pump blocker) to empty calcium stores; entry signal taken 4 min after adding it
- Measured: 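Duplicate raw fluo-4 intensities per well from a plate reader, at rest and four minutes after thapsigargin emptied calcium stores; entry-to-rest ratio filled for only some wells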
- Scale: calcium entry signal: higher = stronger calcium signal after store depletion; entry to resting ratio: higher = more calcium entry relative to resting level; resting calcium signal: higher = higher resting calcium signal
- Call rule: 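Called when the plate z-score of the entry-to-rest ratio, mean of duplicates, falls below −3; wells with low overall dye signal (Fmax z below −2) or more than five off-targets excluded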
- Meaning of the calls: active = strongly reduced calcium entry; inactive = no strong reduction
In all, the deposit lists about 23,000 reagents; shown is an unselected part of those with a known target gene and a result. Of all reagents, 75 (0.33%) are marked active. 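Raw plate signals without normalisation; calls rest on plate z-scores that were not deposited; ratio present for only 364 wells.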 Entries without a mark were called inactive. The record does not give: the dose of the treatment.

target	amplicon	calcium entry signal, replicate 1 (fluorescence units)	calcium entry signal, replicate 2 (fluorescence units)	entry to resting ratio	resting calcium signal, replicate 1 (fluorescence units)	resting calcium signal, replicate 2 (fluorescence units)
CG32582 (retired record)	DRSC19114	2.85e7	3.49e7		1.43e7	1.54e7
CG15040	DRSC19616	4.40e7	2.47e7		2.16e7	1.29e7
CG15040	DRSC21482	2.59e7	2.71e7		1.26e7	1.33e7
qkr58E-1	DRSC04709	3.28e7			1.64e7	
snk	DRSC17060	2.25e7	3.39e7		1.16e7	4.78e7
Ama	DRSC12489	3.63e7	4.15e7		1.52e7	1.94e7
IPIP	DRSC02164	4.90e7			2.72e7	
CG7058	DRSC20021	4.45e7	3.48e7		2.07e7	1.54e7
CG13585	DRSC04221	4.09e7	4.94e7		2.05e7	2.02e7
CG32639	DRSC18972	3.80e7	3.33e7		1.91e7	1.52e7
Dyro	DRSC10598	3.07e7	5.09e7		1.70e7	2.27e7
Brca2	DRSC04219	4.17e7	4.42e7		2.19e7	2.09e7
Brca2	DRSC04220	4.19e7	4.85e7		2.18e7	2.14e7
List	DRSC06520	5.31e7	4.64e7		2.32e7	2.31e7
Ncoa6	DRSC02353	1.94e7			1.54e7	
Ncoa6	DRSC23060	3.34e7	2.73e7		1.73e7	1.43e7
Incenp	DRSC06116	4.16e7			2.05e7	
Incenp	DRSC21950	2.97e7	5.27e7		1.82e7	3.32e7
Lip4	DRSC02930	3.44e7	5.04e7		1.66e7	2.01e7
Mpp6	DRSC03169	3.63e7	2.94e7		1.76e7	1.39e7
CG3347	DRSC00597	3.56e7	2.94e7		1.61e7	1.28e7
ph-p	DRSC18820	3.70e7	5.16e7	2.1	1.78e7	1.98e7
CG34033	DRSC05190	3.36e7	7.02e7		1.72e7	3.08e7
CG6830	DRSC16124	3.69e7	4.18e7		1.79e7	2.26e7
CG7565	DRSC10881	5.06e7	3.91e7		3.25e7	1.57e7
CG32432	DRSC11703	2.17e7	2.91e7		1.48e7	1.67e7
CG32432	DRSC11704	3.23e7	5.40e7		1.82e7	2.66e7
CG32432	DRSC11744	3.01e7	4.66e7		1.44e7	2.03e7
CG34149	DRSC14537	3.37e7	3.12e7		1.67e7	1.44e7
CG3719	DRSC18493	4.43e7	3.06e7		2.34e7	1.67e7
CG11300	DRSC04104	4.13e7	4.66e7		2.05e7	2.17e7
l(2)41Ab	DRSC21007	5.17e7	4.01e7		2.28e7	1.85e7
CG33922	DRSC00050	2.80e7	4.24e7		1.45e7	2.06e7
CG30015	DRSC05241	4.22e7	4.34e7		1.79e7	1.85e7
CG30015	DRSC07027	4.54e7	4.00e7		2.08e7	1.93e7
CG30015	DRSC07028	3.97e7	4.49e7		1.81e7	1.76e7
Lk	DRSC10022	5.35e7	6.13e7		2.38e7	2.62e7
CG42582 (retired record)	DRSC20675	2.95e7	3.18e7		1.54e7	1.48e7
CG6985	DRSC16164	4.26e7	3.74e7		1.98e7	1.83e7
Ctr9	DRSC08562	2.00e7	1.65e7		1.19e7	1.12e7

2 entries from above, ordered by “resting calcium signal, replicate 2 (fluorescence units)”, descending:
target	amplicon	calcium entry signal, replicate 1 (fluorescence units)	calcium entry signal, replicate 2 (fluorescence units)	entry to resting ratio	resting calcium signal, replicate 1 (fluorescence units)	resting calcium signal, replicate 2 (fluorescence units)
CG11300	DRSC04104	4.13e7	4.66e7		2.05e7	2.17e7
l(2)41Ab	DRSC21007	5.17e7	4.01e7		2.28e7	1.85e7
